Experimental data: the supplement of paper PMC5949888
± gives the standard deviation of the averaged measurements. Most values lie at the floor of the assay. Slopes are relative: functional sequences can read slightly below zero.

These substances were tested on Saccharomyces cerevisiae PS128 hsf1 delta, HSF1(1-493) fusion (assay: growth estimate (transactivation domain function in HSF1 fusion, heat-shock survival) (a.u. (slope of normalised read count over time)); higher = stronger growth at 37°C, i.e. more transactivation activity). Details: library: random library.

Substance	growth estimate
SRCVRLLGDPCMLPAV	< -0.25
SRCVSGAS	< -0.25
SRDGYFDRIHKESGGDGSAK	< -0.25
SRDITPRLDLDFG	< -0.25
SRDNQLSEHS	< -0.25
SRDRT	< -0.25
SREQDAFSQGNGLGNGEGDV	< -0.25
SREVGFVKLQNGKY	-0.214
SRFMRSG	< -0.25
SRFNKSCDGTQIDLRHWVTP	< -0.25
SRFQFLHFPIV	< -0.25
SRFTRHECVSSGCCFEYTDV	< -0.25
SRGCVASVVEFRGSKEICRP	< -0.25
SRGDMMFNRSGWCHQA	< -0.25
SRGSVAQRLKLHVSCQGSLC	< -0.25
SRGWQSCGIILAGFCCSSAA	< -0.25
SRHFLSKLLTGGLTYGGHCA	< -0.25
SRHLSGLLNSTYKCRNS	< -0.25
SRHTSYQRC	< -0.25
SRIFHGFHYRTSLARAFY	< -0.25
SRILV	< -0.25
SRIQDKDPLSTGQQRDYVID	< -0.25
SRITAIRLGNCQATRTSL	< -0.25
SRIWWGSSPRGVFTTAPARV	< -0.25
SRIYAGRIM	< -0.25

Substance	growth estimate
SRLC	< -0.25
SRLDMRDTWIVRGVARLRLR	< -0.25
SRLEHRKLFVPLSVHECFRR	< -0.25
SRLFDGLMSRQAAVLR	< -0.25
SRLFLPRRRHVRSDRRVW	< -0.25
SRLIIRRDYQSALT	< -0.25
SRLRRKAGVAVILTKPSLHA	< -0.25
SRLSQIYR	< -0.25
SRLTHGDDCCAIYVRS	< -0.25
SRLTLNMTASSGAVEVLTSH	< -0.25
SRLYPGFRREGPRPSRERTY	< -0.25
SRMF	< -0.25
SRMRHGKQCRVL	< -0.25
SRP	-0.204 ± 0.08
SRPFFKIAMIIR	< -0.25
SRPNTTIGLPQLSYPGVNAA	-0.243
SRPRAIRGAGMPKQFEDRGD	< -0.25
SRPRVCLSPSRVGPRALLWE	< -0.25
SRPYAFYRY	< -0.25
SRQ	< -0.25
SRQAR	< -0.25
SRQARSLVTVGSHRCSLYVN	< -0.25
SRRGVTTELD	< -0.25
SRRKTGSFCQKGPNRRNAHG	< -0.25
SRRLWD	< -0.25

Shown in CSV form: part of the list above.
Substance,growth estimate
SRLRRKAGVAVILTKPSLHA,< -0.25
SRLSQIYR,< -0.25
SRLTHGDDCCAIYVRS,< -0.25
SRLTLNMTASSGAVEVLTSH,< -0.25
SRLYPGFRREGPRPSRERTY,< -0.25

(next part)

Substance	growth estimate
SRRRSWSRKSSKLRKPNCGM	-0.246
SRRSKTFYRLEALNTDQSTL	< -0.25
SRRYPRPLMAAVPCGNNITG	< -0.25
SRSASGVIAKVACRIVLARR	< -0.25
SRSEPGSWALLNLNVGRDCP	< -0.25
SRSLGFSESCLCNHHKFWPS	< -0.25
SRSLIGGSRHEGALSIRLKG	< -0.25
SRSLIICAFPFYGLGCISES	< -0.25
SRSQRLLRPGS	-0.245
SRSSEGRPGFERQNDYSTSS	< -0.25
SRSSRKVALRTSGKPIKASH	< -0.25
SRT	< -0.25
SRTEGQMKWEEASFR	-0.16
SRTGLVRVRKVRPTMRLG	< -0.25
SRTQVL	-0.229
SRTSLQQWVVTSQRALTRSP	< -0.25
SRTVNVVGIEVKLIAVPAFR	< -0.25
SRVAQRSQTYFHPSC	< -0.25
SRVCLCVRFAHWPVTASGGE	< -0.25
SRVGERSRLANMRK	< -0.25
SRVICSPAS	< -0.25
SRVTEVGGPFWGLAWSARML	< -0.25
SRWNATGPWKCLAYRRFISK	< -0.25
SRWPGSECGLLSGGVAFLSL	< -0.25
SRYAFSVKCMTGNCVRKLMS	< -0.25

Substance	growth estimate
SRYVKIRGMKDHIDDNGFLH	< -0.25
SSAAYSKLGIGDA	< -0.25
SSAEL	< -0.25
SSAL	< -0.25
SSALHRGRLFGTLLGRVAGM	< -0.25
SSALVWGSIYDVGLSRTTRE	< -0.25
SSCKGQISLRPKGCGKVKQ	< -0.25
SSCNA	< -0.25
SSCRRFM	< -0.25
SSCTQRRETGWAAAIEKRLS	< -0.25
SSEGGVQDKTPPMLLISDSS	< -0.25
SSF	< -0.25
SSFE	< -0.25
SSFSDTSVSGDWRADRKPGR	< -0.25
SSFSVPPACLMEYRQAGTCS	< -0.25
SSGARSVRLISCLP	< -0.25
SSGLLTPEVSPNRIYDVLA	< -0.25
SSGLRLL	< -0.25
SSGRCVRGGPTIIGNVEP	< -0.25
SSGSGDPWQ	< -0.25
SSHVGVRPVGFGQGRWDTPH	< -0.25
SSHYRADRFLPLGSRLLTVL	< -0.25
SSI	-0.2486 ± 0.0024
SSIAVIHCQFHTVHSLLGTS	< -0.25
SSIDRVFILQIVILRGHIDL	< -0.25

Substance	growth estimate
SSIEDDLEWSAPGVGPSLAV	< -0.25
SSIHLLRRAGALLCVSPSLR	< -0.25
SSIVASLWVVV	< -0.25
SSKFQLFSTGLYFASARSGN	< -0.25
SSKTASGSWTHGAQN	< -0.25
SSLEERWLAHPRQGSLGPC	< -0.25
SSLGG	< -0.25
SSLGLGPDNCRVTLAKGYIK	< -0.25
SSLGSSGAFSLGLGRGIRRD	< -0.25
SSLGTVGGAWLMF	< -0.25
SSLLLTASTAVKLSLRVLEV	< -0.25
SSLSHMARLNVSIALGCTYR	< -0.25
SSLSW	< -0.25
SSLTIASRTESERA	< -0.25
SSMLPGGGAKTHVLLPQTC	< -0.25
SSNHQ	< -0.25
SSNRAGNYQ	< -0.25
SSNSGNHGT	< -0.25
SSNVSTHGRIPVPEIG	< -0.25
SSPHLICSVRQVNHSIGFT	< -0.25
SSPIA	< -0.25
SSPIVPYR	< -0.25
SSPSLL	< -0.25
SSQVEPGI	< -0.25
SSRCLYQRSREMFGISDRVA	< -0.25

Substance	growth estimate
SSRGIFIRIEVWIA	< -0.25
SSRKLQFHQSFNGRLASFIP	< -0.25
SSRNSDGSRAKSAPLWASEK	< -0.25
SSRPASRSDYDEHQ	< -0.25
SSRRRDLPTGAGPRLRRALT	< -0.25
SSRSST	< -0.25
SSS	< -0.25
SSSCK	< -0.25
SSSQ	< -0.25
SSSSRGTLRA	< -0.25
SSSSSGLGPGDWREVASSSA	< -0.25
SSSVSKDHVPGLCR	< -0.25
SSSWLSRRPSSDAEYRAVRR	< -0.25
SSSWSWHMGDHFPLKGPIIS	< -0.25
SSTNRRNRGAKPLTS	< -0.25
SSTPGRLTQVLARSSRVQHK	< -0.25
SSTSKYSVIFGKSALSTDGQ	< -0.25
SSTVDATYGDNVYSEKIS	< -0.25
SSVEHVVRTTTDSQGSPIPP	< -0.25
SSVLTSKVWIAARRVL	< -0.25
SSVMVTHVLFLGHRTLCGD	< -0.25
SSVPVRTRCTDKSTTKKRKL	< -0.25
SSVQVYLVRASGHAPG	-0.246
SSVRSPSVSDWILKVRDHLV	< -0.25
SSVSELRTGWNIRVTANTQT	< -0.25

Looked up above:
For growth estimate, SSRRRDLPTGAGPRLRRALT reads < -0.25
For growth estimate, SSTVDATYGDNVYSEKIS reads < -0.25
For growth estimate, SSRGIFIRIEVWIA reads < -0.25
For growth estimate, SSTNRRNRGAKPLTS reads < -0.25
For growth estimate, SSRPASRSDYDEHQ reads < -0.25
For growth estimate, SSRNSDGSRAKSAPLWASEK reads < -0.25
For growth estimate, SSSWLSRRPSSDAEYRAVRR reads < -0.25

More entries follow:

Substance	growth estimate
SSVVQYGYVC	< -0.25
SSVWDLRAVQLLSIDAQVKR	< -0.25
SSWLLDQVSTLRGVGIFVVV	< -0.25
SSYDSRWFCCYSSRVGLARP	< -0.25
SSYRNDRGAGPRQGQRYIGH	< -0.25
SSYTSYKDYR	< -0.25
STAGIVAQLLRS	< -0.25
STAHIRSDYPTMAAIF	< -0.25
STALNPVA	< -0.25
STARPSKVSPMPSSGASFSL	< -0.25
STEKPTAIVLVNVLRRMPAR	< -0.25
STELPWRPNGRIRGPAVVYM	< -0.25
STERTSMIVTLIYHGFLAEN	< -0.25
STERTVGRIRLEESLLFYPL	0.023
STGFGHDMVLVNKVPKGLHT	< -0.25
STGHFEAEQARPRIATVCA	< -0.25
STGIGCEYASLIVVVQLSWK	< -0.25
STGVKRIAVLPRL	< -0.25
STHSVRVRKYCPGTDGSAGK	< -0.25
STIFAMPSDLFSASRDLGST	< -0.25
STIQLSVPRDGYFNDCALRA	< -0.25
STKAPIQH	< -0.25
STLADTTLMAIGPPNVRCDS	< -0.25
STLGRTTGSHRLFT	< -0.25
STLMVQINGERAASP	< -0.25

Substance	growth estimate
STLNAAITAVMGRLVSPSQR	< -0.25
STLPPGGILI	< -0.25
STLTDTATSVLVT	< -0.25
STNAATVMPTADQVCIMTRA	< -0.25
STNRISQSNTLKAGTPASRA	< -0.25
STNVVINYGTS	< -0.25
STPAEANCPEKSCGRARSTS	-0.246
STPKLDCDERLIFSLSTFVL	< -0.25
STPRVELFARLHCT	< -0.25
STPSRFIVQRYATVLISWL	< -0.25
STPSRQKSSYGFGHGDKDKD	-0.246
STQIRSESLSFVCLDIGLVV	< -0.25
STR	-0.227
STRF	< -0.25
STRGPRRVGPAGDPVLGAGP	< -0.25
STRQRVLKFSMAAV	< -0.25
STRRRHPYAI	< -0.25
STRS	< -0.25
STRTSCVPDQHRTPMFMSGI	< -0.25
STRVTLPAVGSSVHDKL	< -0.25
